Laboratory results reported in patent publication US20220096664A1, “STABILIZED FORMULATIONS CONTAINING IODINATED CONTRAST AGENTS AND CYCLODEXTRINS” (Verrow Pharmaceuticals, Inc., priority 2012, published 2022).
Like-named read-outs stand apart in the source and are kept apart here. At least one compound was matched to its structure with a doubt left.

What was measured:
[1] = Photostability: iodide formed after visible light irradiation; format: physicochemical; details: 10 mM TRIS; for Iodide formed: 50 mM agent, pH 7.4, VIS 72 h; for I- formed, VIS: 473 mM iohexol, pH 7.4, VIS 90 h
Protocol: Aqueous solutions comprising iodinated contrast agents were prepared and evaluated in a photolysis chamber as described in the ICH guidance document, Q1B Photostability Testing of New Drug Substances and Products, available from the US Food and Drug Administration, incorporated herein by reference. The solutions were placed in 1 cm×1 cm (3 mL) quartz cuvettes having 2 clear sides and 2 sides etched. Lids were placed on the cuvettes and sealed with a wrap of Parafilm® around the joint. The cuvettes were placed in a photolysis chamber, upright on a flat surface beneath and centered between two horizontal 24 inch fluorescent lamps, (GE, black light F20T12, 20 watt for ultraviolet, or Philips F20T12/CW, 20 watt for visible) placed 6 cm apart. The cuvettes were positioned such that their two clear sides were facing the two lamps.
Cuvettes were spaced ˜2 cm from each other, and no closer than 15 cm from the ends of the lamps. This positioning allowed reproducible light exposure to all cuvettes.
(§1) The lamps were switched on and the solutions irradiated for 18 to 24 hours for the ultraviolet (UV) lamps or 72 to 90 hours for the visible (VIS) light lamps. At the end of the selected irradiation time, the cuvettes were removed from the photolysis chamber and mixed by inversion 2-times. The caps were then removed and 40 microliter aliquots taken and diluted with 1 mL of an aqueous solution containing ˜0.9 mg/mL sodium thiosulfate. The thiosulfate solution converted any I2, IO3^−, and I3^− present in the solution tor such that total iodine species could be determined in one assay.
(§2) The diluted solutions were assayed by high pressure liquid chromatography (HPLC) using a 4.6×250 mm, C-18, 5 micron particle size, reversed phase column with detection at 280 nm for the contrast agent and 230 nm for the thiosulfate and the iodide ion (r). A mobile phase of 30:70 methanol:aqueous buffer (50 mM KH2PO4+7 mL/L 40% tetrabutyl ammonium hydroxide) at 0.75 mL/min was used for elution. Injection volume was 20 microliters. External standards were prepared containing each contrast agent, potassium iodide, and sodium thiosulfate solution and analyzed along with the irradiated samples. The results were reported as weight percentage iodide formed (mg iodide/mg contrast agent times 100).
The absorbance readings at 400 nm due to light exposure were plotted against time of exposure and the resulting correlation used to determine the UV and VIS light exposure. A change in absorbance reading of 0.45 was assumed equivalent to 200 watt hours/square meter for the UV light and a change of 0.51 was assumed equivalent to 1.2 million lux hours for the VIS light. The UV lamps provided 6.62 watts/square meter and the VIS lamps provided 7180 lux.
Aqueous solutions were prepared containing 473 mM iohexol (180 mg 1/mL), 10 mM tromethamine HCl buffer (TRIS), with and without various SCDs. The pH of the solutions was adjusted to 7.4 with 0.1N hydrochloric acid. Aliquots of the solutions were irradiated with ultraviolet (UV) light for 18 hours (119 watt hours/m^2) and other aliquots irradiated with visible (VIS) light for 90 hours (0.65 million lux hours). The solutions were then processed, analyzed and reported as in Example 2, with the exception that the iohexol peak was measured at 300 nm for both samples and standards. Results of the study are presented in the table below along with the SCD used. The SCDs included derivatives prepared from alpha, beta, and gamma CD to evaluate the effect of CD cavity size. Various substituents, including one derivative containing more than one type of substituent, and degrees of substitution (DS) were also evaluated.
Aqueous solutions were prepared containing 50 mM iodinated contrast agent, 10 mM tromethamine HCl buffer (TRIS), with and without sulfobutylether beta-cyclodextrin with an average degree of substitution-7 (SBE7-β-CD), or 2-hydroxypropyl beta-cyclodextrin with an average degree of substitution of ˜6.3 (HP6.3-β-CD) or ˜4.3 (HP4.3-β-CD). […]

[2] = format: physicochemical; details: for Iodide Formed, Post Autoclave: 50 mM iohexol
Protocol: as §1, §2
Aqueous solutions were prepared containing 50 mM iodinated contrast agent, 10 mM tromethamine HCl buffer (TRIS), with and without sulfobutylether beta-cyclodextrin with an average degree of substitution-7 (SBE7-β-CD), or 2-hydroxypropyl beta-cyclodextrin with an average degree of substitution of ˜6.3 (HP6.3-β-CD) or ˜4.3 (HP4.3-β-CD). The iohexol solution was prepared by dissolving solid iohexol powder while the other solutions were prepared by diluting commercial formulated products and adding sufficient TRIS buffer to reach 10 mM. The pH of the solutions was adjusted to 7.4 with 0.1N hydrochloric acid.
Aliquots of the solutions were irradiated with visible light for 72 hours (0.52 million lux hours). Other aliquots were autoclaved for 20 minutes at 121° C., cooled to room temperature and then irradiated with ultraviolet light for 18 hours (119 watt hours/m2). The solutions were then processed, analyzed and reported as in Example 2, except that the chromatographic peaks of the contrast agents were evaluated at 300 nm for both samples and standards. […]
Aqueous formulations were prepared containing iodinated contrast agents at concentrations used commercially in medical procedures. Sulfobutylether-cyclodextrin, sodium salt, average degree of substitution ˜7 (SBE7CD) was added at varying agent:CD mole ratios. The formulations were placed in glass vials, sealed with rubber stoppers and aluminum crimps, and autoclaved at 121° C. for 20 minutes. Aliquots of the autoclaved solutions were exposed to UV light for 24 hours (159 watt hours/m^2 or VIS light for 72 hours (0.52 million lux hours) as in Example 2. The solutions were then processed, analyzed and reported as in Example 2, with the following two exceptions; 1) the chromatographic peaks of the contrast agents were evaluated at 300 nm for both samples and standards, and 2) only 20 microliter sample aliquots were taken and diluted for HPLC analysis due to the higher concentrations used in this study. Results of the study are presented in the table below along with the solution compositions.

Question: For `CC(=O)N(CC(O)CO)c1c(I)c(C(=O)NCC(O)CO)c(I)c(C(=O)NCC(O)CO)c1I` (centres unmarked) [Iohexol, iohexol], which Iodide formed ([1]; agent:HP4.3-β-CD 1:0.025) is on record?
Answer: The Iodide formed was 0.331 wt %.

Question: What about the Iodide formed ([1]; agent:HP4.3-β-CD 1:0.05) of the same compound?
Answer: The Iodide formed was 0.324 wt %.

Question: What about the Iodide formed ([1]; agent:HP6.3-β-CD 1:0.025) of the same compound?
Answer: The Iodide formed was 0.346 wt %.

Question: What about the Iodide formed ([1]; agent:HP6.3-β-CD 1:0.05) of the same compound?
Answer: Its Iodide formed is 0.341 wt %.

Question: And the Iodide formed ([1]; agent:SBE7-β-CD 1:0.01)?
Answer: Its Iodide formed is 0.337 wt %.

Question: What about the Iodide formed ([1]; agent:SBE7-β-CD 1:0.05) of the same compound?
Answer: Its Iodide formed is 0.316 wt %.

Question: And the Iodide formed ([1]; agent:SBE7-β-CD 1:0.1)?
Answer: The Iodide formed was 0.313 wt %.

Question: What about the Iodide formed ([1]; agent:SBE7-β-CD 1:0.5) of the same compound?
Answer: Its Iodide formed is 0.274 wt %.

Question: What about the Iodide formed ([1]; agent:SBE7-β-CD 1:2) of the same compound?
Answer: Its Iodide formed is 0.183 wt %.

Question: And the Iodide formed ([1]; no SCD (1:0))?
Answer: Its Iodide formed is 0.355 wt %.

Question: And the “I- formed, VIS” value ([1]; no SCD (SBE4.6γCD Control))?
Answer: The value was 0.0575 wt %.

Question: And the “I- formed, VIS” value ([1]; no SCD (control))?
Answer: The value was 0.0617 wt %.

Question: What about the “Iodide Formed, Post Autoclave” value ([2]; TRIS 0 mM, SBE7-β-CD 2.5 mM) of the same compound?
Answer: Its value is 0.00933 wt %.

Question: What about the “Iodide Formed, Post Autoclave” value ([2]; TRIS 2.5 mM, SBE7-β-CD 0 mM) of the same compound?
Answer: The value was 0.00296 wt %.

Question: And the “Iodide Formed, Post Autoclave” value ([2]; TRIS 2.5 mM, SBE7-β-CD 2.5 mM)?
Answer: The value was 0.00183 wt %.

Question: What about the “Iodide Formed, Post Autoclave” value ([2]; TRIS 5 mM, SBE7-β-CD 0 mM) of the same compound?
Answer: The value was 0.00283 wt %.

Question: What about the “Iodide Formed, Post Autoclave” value ([2]; TRIS 5 mM, SBE7-β-CD 2.5 mM) of the same compound?
Answer: Its value is 0.00174 wt %.

Question: And the “Iodide Formed, Post Autoclave” value ([2]; TRIS 7.5 mM, SBE7-β-CD 0 mM)?
Answer: Its value is 0.00181 wt %.

Question: And the “Iodide Formed, Post Autoclave” value ([2]; TRIS 7.5 mM, SBE7-β-CD 2.5 mM)?
Answer: Its value is 0.0017 wt %.

Question: What about the “Iodide Formed, Post Autoclave” value ([2]; TRIS 10 mM, SBE7-β-CD 0 mM) of the same compound?
Answer: Its value is 0.00086 wt %.

Question: What about the “Iodide Formed, Post Autoclave” value ([2]; TRIS 10 mM, SBE7-β-CD 2.5 mM) of the same compound?
Answer: Its value is 0.00214 wt %.

Question: And the “Iodide Formed, Autoclaved” value ([2]; Iohexol 140 mg I/mL, pH 7.4, agent:SBE7CD 1:0.05)?
Answer: Its value is 0.00287 wt %.

Question: What about the “Iodide Formed, Autoclaved” value ([2]; Iohexol 140 mg I/mL, pH 7.4, no SCD (1:0)) of the same compound?
Answer: The value was 0.00474 wt %.

Question: And the “Iodide Formed, Autoclaved” value ([2]; Iohexol 155 mg I/mL, pH 7.4, agent:SBE7CD 1:0.02)?
Answer: The value was 0.00019 wt %.

Question: And the “Iodide Formed, Autoclaved” value ([2]; Iohexol 155 mg I/mL, pH 7.4, agent:SBE7CD 1:0.05)?
Answer: Its value is 0.00016 wt %.

Question: And the “Iodide Formed, Autoclaved” value ([2]; Iohexol 155 mg I/mL, pH 7.4, agent:SBE7CD 1:0.10)?
Answer: Its value is 0.00016 wt %.

Question: And the “Iodide Formed, Autoclaved” value ([2]; Iohexol 155 mg I/mL, pH 7.4, no SCD (1:0))?
Answer: The value was 0.00021 wt %.

Question: And the “Iodide Formed, Autoclaved” value ([2]; Iohexol 180 mg I/mL, pH 7.4, no SCD (1:0))?
Answer: The value was 0.0097 wt %.

Question: And the “Iodide Formed, Autoclaved” value ([2]; Iohexol 240 mg I/mL, pH 7.4, agent:SBE7CD 1:0.05)?
Answer: Its value is 0.00117 wt %.

Question: And the “Iodide Formed, Autoclaved” value ([2]; Iohexol 240 mg I/mL, pH 7.4, no SCD (1:0))?
Answer: Its value is 0.00391 wt %.

Question: What about the “Iodide Formed, Autoclaved” value ([2]; Iohexol 300 mg I/mL, pH 7.4, agent:SBE7CD 1:0.05) of the same compound?
Answer: The value was 0.0004 wt %.

Question: What about the “Iodide Formed, Autoclaved” value ([2]; Iohexol 300 mg I/mL, pH 7.4, no SCD (1:0)) of the same compound?
Answer: The value was 0.00293 wt %.

Question: What about the “Iodide Formed, Autoclaved” value ([2]; Iohexol 350 mg I/mL, pH 7.4, agent:SBE7CD 1:0.05) of the same compound?
Answer: Its value is 0.00024 wt %.

Question: What about the “Iodide Formed, Autoclaved” value ([2]; Iohexol 350 mg I/mL, pH 7.4, no SCD (1:0)) of the same compound?
Answer: Its value is 0.00244 wt %.

Question: What about the “Iodide Formed, Autoclaved” value ([2]; Iohexol 400 mg I/mL, pH 7.4, agent:SBE7CD 1:0.02) of the same compound?
Answer: The value was 0.00075 wt %.

Question: And the “Iodide Formed, Autoclaved” value ([2]; Iohexol 400 mg I/mL, pH 7.4, agent:SBE7CD 1:0.05)?
Answer: Its value is 0.00109 wt %.

Question: And the “Iodide Formed, Autoclaved” value ([2]; Iohexol 400 mg I/mL, pH 7.4, agent:SBE7CD 1:0.10)?
Answer: The value was 0.00026 wt %.

Question: What about the “Iodide Formed, Autoclaved” value ([2]; Iohexol 400 mg I/mL, pH 7.4, no SCD (1:0)) of the same compound?
Answer: Its value is 0.00069 wt %.
